Measurements: PubChem BioAssay AID1794845 (National Center for Advancing Translational Sciences (NCATS), 2023)
Hit rate of the full screen: of about 6,900 compounds, fewer than 10 were called active. Calls come from the whole dose curve; as a rule, active = well fitted curve in the direction sought with a large enough effect; inconclusive = small, poorly fitted or top-dose-only effect, or another doubt; inactive = no such curve, though single readings can be large or run the other way. The list shows a part of the results.

Sequences of proteins named here, by UniProt entry; tags and fusion partners are left off. A change or cut given only in a name is not applied to a line headed by its entry.
UniProt C7C422: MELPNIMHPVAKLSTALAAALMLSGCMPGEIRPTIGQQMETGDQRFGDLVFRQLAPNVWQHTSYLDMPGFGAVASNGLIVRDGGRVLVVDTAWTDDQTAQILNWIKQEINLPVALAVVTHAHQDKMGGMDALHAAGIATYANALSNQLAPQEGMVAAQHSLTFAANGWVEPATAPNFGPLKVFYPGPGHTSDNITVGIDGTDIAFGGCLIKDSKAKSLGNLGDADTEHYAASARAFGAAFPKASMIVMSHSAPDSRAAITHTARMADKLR

biological target: Metallo-beta-lactamase type 2 (Klebsiella pneumoniae) (UniProt C7C422); assay: qHTS to identify inhibitors of the New Delhi Metallo-beta-lactamase (NDM): primary screen against the NCATS Gemini Collection; conditions: NDM-1 enzyme, meropenem hydrolysis, absorbance 300 nm; at 38.4 µM (top of the series) unless noted; note: % of control where 0% means no effect
Procedure, shortened: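 NDM-1 at 2 nM final in 50 mM HEPES pH 7.0, 1 uM ZnSO4, 0.01% Tween20, preincubated >30 min with compound. Meropenem 50 uM final added; absorbance at 300 nm after 30 min.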

SMILES	activity % (negative = inhibition)
O=C1NC2(CCN(C(=O)Cc3ccccc3)C2)OCc2ccccc21 (stereo not given)	inactive: 10.4% [at 57.5 µM]
CC[C@H]1CN(C(C)=O)CC[C@H]1CC(=O)NCCOC	inactive: -0.183% [at 77.1 µM]
O=C(CN1C(=O)C2(CCCCC2)C1c1ccccc1)NCCc1c[nH]c2ccccc12 (stereo not given)	inactive: 0.185%
Cc1cccc(N2CCN(C(=O)C3c4ccccc4CC(=O)N3C)CC2)c1C (stereo not given)	inactive: 9.72%
Cc1cc(C)c2[nH]c(C(=O)N(C)Cc3ccccc3-n3cccn3)c(C)c2c1	inactive: 5.75%
c1ccc(CN(Cc2ccoc2)[C@@H]2C[C@@H]3CO[C@H](c4ccccc4)C[C@@H]3C2)cc1	inactive: 22.2%
O=S(=O)(c1cc(F)ccc1F)N1CCCC1c1nncn1Cc1ccncc1 (stereo not given)	inactive: -3.23%
CC(=O)N1CCc2nn(CC(=O)N3CCN(c4ccccc4)CC3)c(=O)cc2C1	inactive: 5.94%
Cc1occc1-c1nc2ncccc2[nH]1	inactive: 47.1% [at 77.1 µM]
O=C(CCCc1ccc(F)cc1)N[C@@H]1CCOC[C@H]1Oc1ccccn1	inactive: -0.127%
Cn1nc(NC(=O)C2CCS(=O)(=O)C2)c2c(Oc3cccnc3)cccc21 (stereo not given)	inactive: 3.9%
CCSCCNC(=O)c1c(C)noc1-c1ccc(C(C)(C)C)cc1	inactive: -0.26%
Cc1cn(CC(=O)N2CC[C@@](C)(O)[C@@H](Cc3ccccc3)C2)c(=O)[nH]c1=O	inactive: -2.65%
Cc1nnnn1CCC(=O)Nc1nn(C)c2cccc(N3CCOCC3)c12	inactive: 4.87%
NC(=O)NCc1cn(C2CCN(C(=O)C3CCCCCC3)CC2)nn1	inactive: 6.42%
c1ccc2cc(-c3nc(C4CCOC4)no3)ncc2c1 (stereo not given)	inactive: 6.36%
Fc1ccccc1Nc1ccnc(N2CC3CCC(C2)N3CC(F)(F)F)n1	inactive: 4%
O=C(Nc1ccc([C@@H](O)[C@H]2COCC(=O)N2Cc2ccccc2F)cc1)c1ccc2c(c1)OCO2	inactive: 9.42%
CCN(Cc1cccc2nonc12)CC1CCCN(CCc2cccc(OC)c2)C1 (stereo not given)	inactive: 6.85%
COC(=O)C1=CN(CC(=O)NC(C)c2ccccc2)S(=O)(=O)N=C1C (stereo not given)	inactive: 6.76%
CC(C)COc1cc(=O)n2c(c1C(=O)NCCCN1CCOCC1)CCCCC2	inactive: -0.783%
CCCNC(=O)N[C@@H]1C=C(C(=O)N[C@H](CC(C)C)C(N)=O)C[C@@H](O)[C@@H]1O	inactive: 21.5% [at 57.5 µM]
O=C(O)c1cnc(N2CCCCC2)nc1-c1ccncc1	inactive: 12.3%
Cc1nnc([C@@H]2CC(F)(F)CN2C(=O)c2ccoc2)o1	inactive: 5.76%
COCC1CN(C(=O)c2sccc2C)CC12CCOCC2 (stereo not given)	inactive: 4.56%
COc1cccc(N2C(=O)NC(=NC3CCCC3)C23CCCN(C(=O)c2ccc(C)cc2)C3)c1 (stereo not given)	inactive: 6.59%
COc1ccc(-c2nn(-c3ccccc3C)cc2CN2C[C@@H](C)O[C@@H](C)C2)cc1F	inactive: 1.11%
Cc1nc(C2CCCN(C(=O)C(C)(C)N)C2)cc(N2CCOCC2)n1 (stereo not given)	inactive: 3.69%

Reformatted as comma-separated lines: entries from further up
SMILES,activity % (negative = inhibition)
NC(=O)NCc1cn(C2CCN(C(=O)C3CCCCCC3)CC2)nn1,inactive: 6.42%
c1ccc2cc(-c3nc(C4CCOC4)no3)ncc2c1 (stereo not given),inactive: 6.36%
Fc1ccccc1Nc1ccnc(N2CC3CCC(C2)N3CC(F)(F)F)n1,inactive: 4%
O=C(Nc1ccc([C@@H](O)[C@H]2COCC(=O)N2Cc2ccccc2F)cc1)c1ccc2c(c1)OCO2,inactive: 9.42%
CCN(Cc1cccc2nonc12)CC1CCCN(CCc2cccc(OC)c2)C1 (stereo not given),inactive: 6.85%
COC(=O)C1=CN(CC(=O)NC(C)c2ccccc2)S(=O)(=O)N=C1C (stereo not given),inactive: 6.76%
CC(C)COc1cc(=O)n2c(c1C(=O)NCCCN1CCOCC1)CCCCC2,inactive: -0.783%
CCCNC(=O)N[C@@H]1C=C(C(=O)N[C@H](CC(C)C)C(N)=O)C[C@@H](O)[C@@H]1O,inactive: 21.5% [at 57.5 µM]
O=C(O)c1cnc(N2CCCCC2)nc1-c1ccncc1,inactive: 12.3%
Cc1nnc([C@@H]2CC(F)(F)CN2C(=O)c2ccoc2)o1,inactive: 5.76%
COCC1CN(C(=O)c2sccc2C)CC12CCOCC2 (stereo not given),inactive: 4.56%
COc1cccc(N2C(=O)NC(=NC3CCCC3)C23CCCN(C(=O)c2ccc(C)cc2)C3)c1 (stereo not given),inactive: 6.59%
COc1ccc(-c2nn(-c3ccccc3C)cc2CN2C[C@@H](C)O[C@@H](C)C2)cc1F,inactive: 1.11%

Next part:

SMILES	activity % (negative = inhibition)
Cc1ccc(C(=O)N2C[C@@H](Oc3cccnc3)C[C@H]2C(N)=O)s1	inactive: 2.46%
COc1ccc(C(=O)N2CC[C@H]3NC(=O)N(c4ccc(Oc5ccccc5)cc4)C(=O)[C@H]32)cc1	inactive: -1.79%
COc1ccc(-c2cc(C(=O)N3CCOC(c4ccc(F)cc4)C3)[nH]n2)cc1 (stereo not given)	inactive: 10.3%
COc1ccc(CCC(=O)N2CCCCCC2CN2CCC(OC)CC2)cc1 (stereo not given)	inactive: 32.7%
CC(=O)NCCc1ncc(C)n1C1CCC1	inactive: 29.8%
Cc1ccccc1CN1CCC(CN(Cc2cccnc2)C(=O)Cc2ccccc2)CC1	inactive: 2.67%
C#Cc1cccc(C(=O)N2CCC(Cc3ccc(Cl)cc3)(C(=O)OCC)CC2)c1	inactive: 2.54%
CCCN(C)C(=O)Cn1c(C)ccc(NS(=O)(=O)c2ccc(C)cc2)c1=O	inactive: 27.1%
O=C(c1cccs1)C1CCCN(Cc2nc(CCc3ccccc3)no2)C1 (stereo not given)	inactive: 0.209%
Cn1ccc2c(C(=O)NCCc3cnc[nH]3)nc(-c3ccc(N4CCOCC4)cc3)cc21	inactive: 17.5% [at 57.5 µM]
CC(C)(C)CC(=O)N1C[C@@H](CO)[C@@H]2Oc3ccc(Cl)cc3[C@@H]21	inactive: 2.46%
O=C(c1ccc(CCC2COc3ccccc3O2)cc1)N1CCCCC1 (stereo not given)	inactive: 2.29%
O=C(NC1CC1)c1ccc2nnc(C3CCCC3)n2c1	inactive: -2.62% [at 57.5 µM]
CCc1nc(-c2c3n(c(=O)n(CCOc4ccc(F)cc4)c2=O)CCCC3)no1	inactive: 4.9%
CN(C)CC1(O)CCC2(CCN(C(=O)CCC3CCCC3)CC2)CC1	inactive: -1.31%
COCCN1CC(CO)C2(CCN(Cc3ccc(C#N)cc3)CC2)C1 (stereo not given)	inactive: -4.56%
COC(=O)[C@H](NC(=O)[C@@H]1C[C@@H](NC(=O)CSC)CCN1S(=O)(=O)c1ccc(OC)cc1)C(C)C	inactive: 48.3%
COC(=O)c1nc(NC(=O)CC[C@H]2NC(=O)c3ccccc3NC2=O)sc1C	inactive: 16.6%
CCn1c2c(c(=O)n1Cc1ccccc1)CCN(C(=O)c1ccc(Oc3ccccc3)cc1)C2	inactive: -13.9%
CCNC(=O)c1coc(COc2ccc3c(c2)C(c2cccc(C)c2)N(C(=O)C2CC2)CC3)n1 (stereo not given)	inactive: -0.726%
O=C(Nc1cccc(C(F)(F)F)c1)[C@@H]1CCCN1c1ccnc2ccnn12	inactive: 9.09%
CCC(=O)N1CCCC(c2nc(-c3cccnn3)no2)C1 (stereo not given)	inactive: 14.4%
O=C(Cc1cccc(Cl)c1)N1CC(c2nc(Cc3ccccc3)no2)C1	inactive: -1.12%
Cc1ccc(CN2CC(Oc3ccccc3C(=O)NCc3ccccc3)C2)o1	inactive: -1.97%
Clc1ccccc1C1(c2ccnc(NCCc3ccncc3)n2)CCNCC1	inactive: 23.3%
Cc1cc(CN(C)c2ccc(-c3nc(-c4ccccc4F)no3)cn2)on1	inactive: 25.4%
COc1ccc(CN2C(=O)COC[C@H]2C(=O)Nc2cc(F)cc(F)c2)cc1OC	inactive: -11.3%
